PubChem BioAssay AID504804, Drosophila RNAi Screening Center, 2011

Aim: 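dsRNAs that improve Kc cell survival under doxorubicin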 (primary screen)
Cell system: Drosophila Kc cells
Knock-down reagent: long dsRNA against Drosophila genes, 0.5 µg dsRNA per well
Duration: 96 h (48 h knock-down, then 48 h drug)
Challenge: doxorubicin 5 µg/ml for 48 h, added 48 h after dsRNA
Read-out: 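Luminescent ATP counts per replicate, not normalised, reflecting viable cells after 48 h dsRNA knock-down followed by 48 h of 5 µg/ml doxorubicin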
Direction: raw ATP luminescence: higher = more viable cells, protection from doxorubicin
Hit rule: 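Active when both duplicate wells lie at least 2 SD above the plate mean and protection is confirmed by rescreening and independent dsRNAs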
The deposit covers about 19,000 reagents; shown is an unselected part of those that have a named target and a result. Over the whole deposit, 47 (0.25%) were called active. 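Signals are raw, not normalised; exact z-scores behind calls not deposited; actives needed confirmation, so some wells reaching 2 SD are inactive.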 Entries without a mark were called inactive. Names joined by + are all predicted targets of the reagent. No sequences are given here.

gene	amplicon	raw ATP luminescence, replicate 1	raw ATP luminescence, replicate 2
CG1075 (retired record)	DRSC12144	59287	65433
Hat1 (Histone acetyltransferase 1)	DRSC12298	67570	73807
CG4789	DRSC19918	3.61e5	3.23e5
Tmlh (Trimethyllysine hydroxylase)	DRSC15563	60180	61070
CG5039	DRSC15703	61220	57910
CG32299 + CG32298	DRSC07980	1.86e5	1.69e5
alka (alkaliphile)	DRSC06136	37410	79427
Tmem131 (Transmembrane protein 131)	DRSC07154	56123	50053
ssp6 (short spindle 6)	DRSC08791	1.52e5	1.71e5
ssp6 (short spindle 6)	DRSC10677	74667	80917
CG7115	DRSC02000	35757	62090
dsd (distracted)	DRSC13829	2.51e5	3.01e5
Mtpalpha (Mitochondrial trifunctional protein alpha subunit)	DRSC01994	80033	66403
NC2alpha (Negative Cofactor 2alpha)	DRSC04059	91893	82707
CG17005	DRSC02556	38230	65757
CG31465	DRSC16090	53730	50747
CG6310	DRSC10619	72733	71470
Spn38F (Serpin 38F)	DRSC03616	57747	48233
CG2898	DRSC18238	3.39e5	2.88e5
pita	DRSC04006	97507	1.03e5
pita	DRSC04435	61163	51653
CG13255	DRSC11702	71283	63530
l(1)G0196 (lethal (1) G0196)	DRSC20591	2.39e5	2.45e5
l(1)G0196 (lethal (1) G0196)	DRSC20629	3.75e5	2.92e5
Mocs1 (Molybdenum cofactor synthesis 1)	DRSC11225	88920	75953
COX8 (Cytochrome c oxidase subunit 8)	DRSC11814	72383	72290
CG2955	DRSC00552	94407	85113
eIF3d1 (eukaryotic translation initiation factor 3 subunit d1)	DRSC16938	72840	61570
CG6567 + CG4565	DRSC15599	64013	52060
GCS2beta (Glucosidase 2 beta subunit)	DRSC02960	1.78e5	1.91e5
CG6602	DRSC10673	72660	74130
Qsox2 (Quiescin sulfhydryl oxidase 2)	DRSC15287	42977	47987
CG10038	DRSC14178	68107	37997
Best4 (Bestrophin 4)	DRSC10792	60333	44530
MED30 (Mediator complex subunit 30)	DRSC08516	46163	57840
CG31342	DRSC15349	45677	25343
CG31342	DRSC16246	1.29e5	89560
SmD2 (Small ribonucleoprotein particle protein SmD2)	DRSC12536	34253	40377
Obp99d (Odorant-binding protein 99d)	DRSC15046	54470	42800
ND-B14.5B (NADH dehydrogenase (ubiquinone) B14.5 B subunit)	DRSC00346	26020	25860
LManI (Lysosomal alpha-mannosidase I)	DRSC02838	38490	72623
Sulf1 (Sulfated)	DRSC16874	59670	75690
CG6333	DRSC10626	47103	40267
Smyd4-1 (SET and MYND domain containing, class 4, member 1)	DRSC06785	50657	45323
Ube4B (Ubiquitination factor E4B)	DRSC03277	93877	72700
Not11 (CCR4-NOT transcription complex subunit 11)	DRSC04204	53427	53200
CG14431	DRSC17925	31050	37190
CG31278	DRSC16051	61247	51417
CG10137	DRSC02014	77220	54313
CG10137	DRSC02015	63973	52833
CG5070	DRSC19932	3.70e5	3.33e5

Next part (4 carried over from the part before).
gene	amplicon	raw ATP luminescence, replicate 1	raw ATP luminescence, replicate 2
CG31278	DRSC16051	61247	51417
CG10137	DRSC02014	77220	54313
CG10137	DRSC02015	63973	52833
CG5070	DRSC19932	3.70e5	3.33e5
Spn28Dc (Serpin 28Dc)	DRSC03029	42770	65567
Pi4KIIalpha (Phosphatidylinositol 4-kinase II alpha)	DRSC12322	50270	23480
Pi4KIIalpha (Phosphatidylinositol 4-kinase II alpha)	DRSC12323	64733	54587
CG10864	DRSC14273	47940	72020
Leash	DRSC15617	46157	46267
bves	DRSC20520	3.29e5	3.39e5
bves	DRSC20554	3.44e5	3.00e5
bves	DRSC20555	3.47e5	2.95e5
CG11912	DRSC00332	1.15e5	72653
CG3701 (retired record)	DRSC04408	39603	65900
CG3701 (retired record)	DRSC04409	36030	59847
Polr1D + DCTN6-p27	DRSC02094	69883	61307
Cyp18a1 (Cytochrome P450 18a1)	DRSC20235	2.46e5	2.44e5
CG8191 + CG12379	DRSC19451	2.97e5	3.82e5
CG18586	DRSC10325	77567	87377
CG2127	DRSC06821	61273	82487
CG32391	DRSC08865	1.05e5	1.49e5
CG4080	DRSC10398	37847	31007
CG3339	DRSC13821	2.20e5	1.94e5
CG3339	DRSC15479	53710	40310
TwdlO (TweedleO)	DRSC16043	32450	42360
CG6685	DRSC10695	76697	64190
CG31141	DRSC13646	1.58e5	1.82e5
Sar1 (Secretion-associated Ras-related 1)	DRSC17049	52813	54350
CG14406	DRSC19592	3.06e5	2.80e5
CG7448 (retired record)	DRSC11828	20627	17837
Zmynd10 (Zinc finger MYND-type containing 10)	DRSC09826	81623	86047
MagR (Magnetic receptor)	DRSC20092	2.10e5	2.16e5
CG10428	DRSC02054	1.09e5	87097
CG15412	DRSC00427	22853	29950
TM9SF4 (Transmembrane 9 superfamily protein member 4)	DRSC01888	75347	60713
TM9SF4 (Transmembrane 9 superfamily protein member 4)	DRSC02537	70527	75020
mIF2 (mitochondrial translation initiation factor 2)	DRSC14510	60680	45860
